Earlier results in patent US20200383905A1 (priority 2015, published 2020).

Test system: patients undergoing abdominal surgery
Details: on-demand dosing; cited from earlier work

CN1CC[C@]23c4c5ccc(O)c4O[C@H]2[C@@H](O)C=C[C@H]3[C@H]1C5 [morphine]
Mean cumulative dose, first 90 minutes: 13.9 mg
